Measurements reported in PubChem BioAssay AID504808 (Drosophila RNAi Screening Center, 2011).

Screen: 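Fly genes required to hold E2F transcription in check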 (primary screen)
Cell system: Drosophila S2 cells
Reagent: long dsRNA against Drosophila genes
Measurement: 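Dual luciferase plate measurements; E2F-specific signal taken as firefly over Renilla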
Direction: E2F firefly: higher = more E2F reporter activity; Renilla normaliser: higher = more normaliser reporter signal
Rule for the call: 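a knock-down counted as active when the firefly/Renilla E2F signal rose above 50%, a threshold chosen arbitrarily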
The screen tested about 21,000 reagents; below is an unselected part of those with a known target gene and a result. Of all reagents, 18 (0.084%) were called active. 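Raw counts without plate normalisation, one of two replicates; the ratio scores behind the calls were not deposited.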 Reagents against one gene are numbered here. Names joined by + are all predicted targets of the reagent. Not given: the amount of reagent, the time to read-out.

With CG8924 (GeneID 32557), what does the deposit list?
E2F firefly, rep 1: 6878; Renilla normaliser, rep 1: 664; call: inactive

For CG18139 (retired record) + Hmx, what does the deposit list?
E2F firefly, rep 1: 94369; Renilla normaliser, rep 1: 4909; call: inactive

For Fsn (GeneID 36460), how do the results read?
E2F firefly, rep 1: 2746; Renilla normaliser, rep 1: 194; call: inactive

For CG31650 (GeneID 326150), what was measured?
E2F firefly, rep 1: 1.01e5; Renilla normaliser, rep 1: 4643; call: inactive

For CG2540 (GeneID 32216), what was measured?
E2F firefly, rep 1: 7855; Renilla normaliser, rep 1: 796; call: inactive

What did the screen give for CG32767 (GeneID 31430)?
E2F firefly, rep 1: 49854; Renilla normaliser, rep 1: 3358; call: inactive

What did the screen give for pan (GeneID 43769)?
E2F firefly, rep 1: 1874; Renilla normaliser, rep 1: 768; call: inactive

How did the screen score PNUTS (GeneID 33270)?
E2F firefly, rep 1: 67964; Renilla normaliser, rep 1: 3673; call: inactive

What is on record for CG43078 (GeneID 38981) #1?
E2F firefly, rep 1: 86792; Renilla normaliser, rep 1: 4094; call: inactive

For CG43078 (GeneID 38981) #2, what does the deposit list?
E2F firefly, rep 1: 84276; Renilla normaliser, rep 1: 3779; call: inactive

For NetA (GeneID 32398), what was measured?
E2F firefly, rep 1: 2.45e5; Renilla normaliser, rep 1: 5815; call: inactive

For CG8708 (GeneID 35792), how do the results read?
E2F firefly, rep 1: 3100; Renilla normaliser, rep 1: 205; call: inactive

Which result is listed for CG14355 (GeneID 41723)?
E2F firefly, rep 1: 74324; Renilla normaliser, rep 1: 3481; call: inactive

For CG33127 (GeneID 318893), what was measured?
E2F firefly, rep 1: 1.35e5; Renilla normaliser, rep 1: 4798; call: inactive

With Sgs1 (GeneID 33701) #1, how do the results read?
E2F firefly, rep 1: 1.46e5; Renilla normaliser, rep 1: 5987; call: inactive

With Sgs1 (GeneID 33701) #2, what was measured?
E2F firefly, rep 1: 1.36e5; Renilla normaliser, rep 1: 5240; call: inactive

How did the screen score RpS23 (GeneID 36576)?
E2F firefly, rep 1: 2599; Renilla normaliser, rep 1: 195; call: inactive

With beat-IIIb (GeneID 35031), what does the deposit list?
E2F firefly, rep 1: 1.09e5; Renilla normaliser, rep 1: 4496; call: inactive

With CG9084 (GeneID 36172), what was measured?
E2F firefly, rep 1: 95270; Renilla normaliser, rep 1: 4187; call: inactive

For CG3156 (GeneID 30994), what does the deposit list?
E2F firefly, rep 1: 1989; Renilla normaliser, rep 1: 764; call: inactive

Which result is listed for Nelf-E (GeneID 38982)?
E2F firefly, rep 1: 1.15e5; Renilla normaliser, rep 1: 4138; call: inactive

What is on record for achi (GeneID 36373)?
E2F firefly, rep 1: 92457; Renilla normaliser, rep 1: 4198; call: inactive

For r2d2 (GeneID 34066), what was measured?
E2F firefly, rep 1: 1.32e5; Renilla normaliser, rep 1: 4936; call: inactive

For Ama (GeneID 40831), how do the results read?
E2F firefly, rep 1: 66641; Renilla normaliser, rep 1: 3630; call: inactive

For APC10 (GeneID 36975), what does the deposit list?
E2F firefly, rep 1: 1.32e5; Renilla normaliser, rep 1: 4718; call: inactive

For betaNACtes3 (GeneID 326224), what was measured?
E2F firefly, rep 1: 1.42e5; Renilla normaliser, rep 1: 6438; call: inactive

With veli (GeneID 43003), what was measured?
E2F firefly, rep 1: 91416; Renilla normaliser, rep 1: 4909; call: inactive

What is on record for CG30460 (GeneID 36924) #1?
E2F firefly, rep 1: 1.33e5; Renilla normaliser, rep 1: 4773; call: inactive

For CG30460 (GeneID 36924) #2, what was measured?
E2F firefly, rep 1: 1.29e5; Renilla normaliser, rep 1: 4101; call: inactive
